PubChem BioAssay AID1259308, NCATS – 2017

- Screen: 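Candidate targets for better recombinant protein yield in mammalian cells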 (primary screen)
- Cells: human HEK293 embryonic kidney cells stably expressing firefly luciferase (HEK-CMV-Luc2-Hygro)
- Reagents: single siRNA against human genes, 0.8 pmol siRNA per well
- Duration: 72 h
- Read-out: 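Luciferase light (ONE-Glo) measured on one replicate plate set and viability (CellTiter-Glo) on the other, scaled to a negative control siRNA, with robust z-scores and luciferase per cell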
- Reading the numbers: total luciferase, z-score: higher = more reporter protein produced
- Active means: 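Active when the median/MAD z-score for overall luciferase is greater than 3; a gene was taken forward for validation with new siRNAs if at least two of its three siRNAs passed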
- Calls: active = raised luciferase; inactive = no rise
Shown is a random part of about 59,000 reagents tested. In the full data, about 1,510 (2.6%) got an active call. 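Calls use total luciferase alone and ignore viability, so some active siRNAs may act by altering cell number.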 Reagents against one gene are numbered here. Further read-outs or replicates are left out here.

total luciferase, z-score, by gene and reagent
ASPN: #1 -1.21 inactive; #2 1.3 inactive; #3 -2.98 inactive
LRRC41: #1 -0.667 inactive; #2 0.386 inactive; #3 0.569 inactive
TNFRSF18: #1 0.594 inactive; #2 -1.43 inactive; #3 0.0149 inactive
FGF5: #1 1.57 inactive; #2 -0.475 inactive; #3 0.762 inactive
MEP1B: #1 -0.196 inactive; #2 -0.836 inactive; #3 0.987 inactive
ABCB11: #1 -0.727 inactive; #2 -0.193 inactive; #3 -0.123 inactive
HMGCS2: #1 -0.0412 inactive; #2 -0.628 inactive; #3 -0.554 inactive
NCF4: #1 -0.958 inactive; #2 0.454 inactive; #3 -0.138 inactive
GALM: #1 0.707 inactive; #2 3.36 active; #3 -1 inactive
UBE2H: #1 1.19 inactive; #2 -0.38 inactive; #3 0.712 inactive
HDX: #1 0.855 inactive; #2 0.273 inactive; #3 -0.688 inactive
MS4A6A: #1 -0.647 inactive; #2 -0.582 inactive; #3 -2.17 inactive
NDUFS6: #1 1.47 inactive; #2 0.541 inactive; #3 0.843 inactive
BGN: #1 0.44 inactive; #2 -0.289 inactive; #3 3.27 active
TAF4: #1 0.619 inactive; #2 -0.572 inactive; #3 3.43 active
ABCC10: #1 -0.138 inactive; #2 -0.0125 inactive; #3 0.115 inactive
PGPEP1L: #1 0.328 inactive; #2 0.00524 inactive; #3 -0.161 inactive
CLCA3P: #1 -0.279 inactive; #2 1.92 inactive; #3 1.31 inactive
FRAT1: #1 0.352 inactive; #2 0.387 inactive; #3 -1.16 inactive
STMP1: #1 3.35 active; #2 3.19 active; #3 -0.485 inactive; #4 0.358 inactive; #5 1 inactive; #6 0.757 inactive
TPRKB: #1 -0.438 inactive; #2 -0.695 inactive; #3 -0.379 inactive
NRCAM: #1 0.868 inactive; #2 -0.8 inactive; #3 1.79 inactive
BCAT2: #1 0.0587 inactive; #2 -0.798 inactive; #3 1.39 inactive
TLN1: #1 0.47 inactive; #2 3.15 active; #3 2.57 inactive

Quoted from the entries so far, 9 entries:
total luciferase, z-score, by gene and reagent
LRRC41: #1 -0.667 inactive; #2 0.386 inactive; #3 0.569 inactive
TNFRSF18: #1 0.594 inactive; #2 -1.43 inactive; #3 0.0149 inactive
FGF5: #1 1.57 inactive; #2 -0.475 inactive; #3 0.762 inactive
